From US20080095737A1, “NON-TOXIC COATING COMPOSITION, METHODS OF USE THEREOF AND ARTICLES PROTECTED FROM ATTACHMENT OF BIOFOULING ORGANISMS” (Symrise GmbH & Co. KG, priority 2000, published 2008)
For at least one compound, name, drawing or mass did not settle the structure.

System: cyprid larvae of the barnacle, Balanus amphitrite Darwin
Experiment: Barnacle settlement inhibition assay
Type: in vivo
Source text: Mary's College in Tuticorin, India. The barnacles were crushed and the nauplius stage larvae were collected for culture to the cyprid stage following the method of Rittschof et al., J. Exp. Mar. Biol. Ecol., 82:131146 (1984). The cyprid is the stage at which the barnacle larva is competent to attach to surfaces. Upon attachment to a surface, the larva then undergoes metamorphosis into a barnacle. Barnacle settlement assays were undertaken using the method described previously by Rittschof et al., J. Chem. […] Briefly, Falcon 50×9 mm plastic petri dishes were filled with 5 ml of filtered seawater at salinity of 33-35 parts per thousand (ppt) and into which 3-day old cyprid stage larvae were added. The test compounds were introduced at various concentrations into the dishes containing seawater. The test compounds included (-)menthol and (-)[…]-3,8-diol. Controls were represented by those dishes in which no test compound were added. After incubation at 28° C. for 9 hours, the dishes were examined under a dissecting microscope to determine if there was any mortality. […] Settlement data were expressed as the percentage of the larvae attached to the bottom of the dish. The same settlement assay was used to determine the effective concentration of a number of different compounds of formula I, above. […]

CC1CCC(C(C)(C)O)C(O)C1 (single isomer, unassigned; (+)) [(+) cis-p-manthan-3,8-diol]
EC50 (concentration which inhibited the settlement of 50% of the cyprid stage larvae): 100 µg/mL
